Sequences of proteins named here, by UniProt entry; tags and fusion partners are left off. A change or cut given only in a name is not applied to a line headed by its entry.
UniProt B3F8Y1: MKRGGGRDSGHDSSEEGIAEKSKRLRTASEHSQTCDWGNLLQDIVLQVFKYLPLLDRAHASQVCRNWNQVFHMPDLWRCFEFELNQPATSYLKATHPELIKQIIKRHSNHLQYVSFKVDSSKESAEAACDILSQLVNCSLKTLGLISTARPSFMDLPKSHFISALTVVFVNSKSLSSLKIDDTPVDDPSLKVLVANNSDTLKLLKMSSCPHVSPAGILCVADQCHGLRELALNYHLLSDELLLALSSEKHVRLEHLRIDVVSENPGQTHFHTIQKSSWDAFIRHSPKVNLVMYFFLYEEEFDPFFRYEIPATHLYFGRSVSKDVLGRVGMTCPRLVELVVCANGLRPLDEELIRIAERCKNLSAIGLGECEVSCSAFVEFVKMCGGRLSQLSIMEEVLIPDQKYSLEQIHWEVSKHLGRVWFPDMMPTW
UniProt A0ACI6NKV9: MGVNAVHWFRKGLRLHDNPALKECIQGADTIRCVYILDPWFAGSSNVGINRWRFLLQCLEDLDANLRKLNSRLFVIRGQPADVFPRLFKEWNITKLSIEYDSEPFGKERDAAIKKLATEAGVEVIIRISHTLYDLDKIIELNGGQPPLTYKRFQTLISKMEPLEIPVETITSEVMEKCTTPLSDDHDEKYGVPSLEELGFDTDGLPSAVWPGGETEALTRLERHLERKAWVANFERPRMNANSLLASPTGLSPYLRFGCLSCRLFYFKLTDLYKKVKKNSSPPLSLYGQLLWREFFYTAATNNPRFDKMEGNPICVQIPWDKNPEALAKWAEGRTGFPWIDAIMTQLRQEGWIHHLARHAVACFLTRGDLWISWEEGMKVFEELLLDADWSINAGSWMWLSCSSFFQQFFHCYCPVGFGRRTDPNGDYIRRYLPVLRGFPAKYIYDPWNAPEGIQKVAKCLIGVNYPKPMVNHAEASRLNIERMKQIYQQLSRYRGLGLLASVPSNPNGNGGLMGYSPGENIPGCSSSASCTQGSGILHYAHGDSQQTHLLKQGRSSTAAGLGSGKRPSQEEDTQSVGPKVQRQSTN

According to publication PMC2568807:

Molecular target: ovine Fbxl3 full-length, Myc-tagged (sheep) (UniProt B3F8Y1)
Test: co-IP; COS7 cells co-transfected with Myc-Fbxl and Flag-Cry1 vectors, harvested 48 h post-transfection in IP buffer (150 mM NaCl, 5 mM EDTA, 0.5% Nonidet P40, 50 mM Tris pH 7.8); supernatant incubated overnight at 4°C with anti-Myc affinity resin; Western blot with anti-Myc or anti-Flag

binding: binds
Substance: ovine CRY1 (Cryptochrome 1), Flag-tagged (from UniProt A0ACI6NKV9 1-587)

Results are given in words; binding and its absence hold for the method and conditions named. Binding seen in cells or lysates may run through a third protein. A result given as binding can be weak or reduced; the word gives no strength.
